# Reference: the supplement of paper PMC6143611
# Where a name gives a salt, the structure may show the parent alone. ± gives the uncertainty stated by the source. This is one part of the list. Part of the spread comes from offsets between plates or batches.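 Larvae carried a heat-shock-induced fluorescent stripe in rod outer segments, set at 6 dpf; the shedding distance runs from this stripe to the outer segment tip, measured in confocal stacks, about three fish per compound. The controls got 0.2% DMSO vehicle, and the paper flagged compounds with at least a 20% change against the same-week control and p < 0.001 (Dunnett test on mixed-effects models).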
# System: Danio rerio larva rod photoreceptor outer segment
# Assay: rod outer segment growth distance Dg, difference from same-week DMSO control mean; higher = more outer segment growth
# Conditions: 20 µM; treatment time: 4 days (6-10 dpf)
row,Structure (SMILES),rod outer segment growth distance Dg [um]
1,OC(CC1c2ccccc2-c2cncn21)C1CCCCC1 (configuration not stated),-0.21 ± 0.22
2,CC(C)(CO)c1cc2cc(NC(=O)C3(c4ccc5c(c4)OC(F)(F)O5)CC3)c(F)cc2n1C[C@@H](O)CO,-0.81 ± 0.18
3,CNC(=O)Nc1ccc(-c2nc(N3CC4CCC(C3)O4)c3cnn(C4CCC5(CC4)OCCO5)c3n2)cc1,-0.53 ± 0.17
4,O=C(O)c1cc(/N=N/c2ccc(S(=O)(=O)Nc3ccccn3)cc2)ccc1O [Sulfasalazine],0.01 ± 0.21
5,NC(=O)Nc1sc(-c2ccc(F)cc2)cc1C(N)=O,-0.86 ± 0.17
6,C[C@@H]1CCO[C@H]2Cn3cc(C(=O)NCc4ccc(F)cc4F)c(=O)c(O)c3C(=O)N12,-0.78 ± 0.23
7,OC[C@H]1OC(O)[C@H](O)[C@@H](O)[C@@H]1O (some centres not stated) [Dextrose],0.76 ± 0.22
8,C=CC(=O)Nc1cccc(Oc2nc(Nc3ccc(N4CCN(C)CC4)cc3OC)ncc2Cl)c1,-1.03 ± 0.21
9,COc1ccc2cc3[n+](cc2c1OC)CCc1cc2c(cc1-3)OCO2 [Berberine HCl],-0.83 ± 0.37
10,COc1c(C)c2c(c(O)c1C/C=C(\C)CCC(=O)O)C(=O)OC2 [Mycophenolic acid],0.88 ± 0.23
11,CC(C)(C#N)c1cc(Cn2cncn2)cc(C(C)(C)C#N)c1 [Anastrozole],-0.17 ± 0.17
12,Nc1[nH]cnc2ncnc1-2 [Adenine HCl],0.39 ± 0.24
13,CC(=O)SCC(Cc1ccccc1)C(=O)NCC(=O)OCc1ccccc1 (configuration not stated) [Racecadotril],-0.65 ± 0.24

# System: Danio rerio larva rod photoreceptor outer segment
# Assay: rod outer segment shedding distance Ds, difference from same-week DMSO control mean; higher = less outer segment shedding
# Conditions: 20 µM; treatment time: 4 days (6-10 dpf)
row,Structure (SMILES),rod outer segment shedding distance Ds [um]
1,CC(C)C[C@H](NC(=O)[C@H](CCc1ccccc1)NC(=O)CN1CCOCC1)C(=O)N[C@@H](Cc1ccccc1)C(=O)N[C@@H](CC(C)C)C(=O)[C@@]1(C)CO1 [Carfilzomib (PR-171)],0.03 ± 0.13
2,NNC(=O)c1ccncc1 [Isoniazid],-1.41 ± 0.28
3,Nc1ccccc1NC(=O)c1ccc(CNC(=O)OCc2cccnc2)cc1 [Entinostat (MS-275)],-0.74 ± 0.23
4,OCCN(CCO)c1nc(N2CCCCC2)c2nc(N(CCO)CCO)nc(N3CCCCC3)c2n1 [Dipyridamole],-0.21 ± 0.22
5,CCCCCCCCCCCCCCCC(=O)O[C@@H]1[C@@H](O)[C@@H](O)[C@@H]([C@H](NC(=O)[C@@H]2C[C@@H](CCC)CN2C)[C@H](C)Cl)O[C@@H]1SC [Clindamycin palmitate HCl],-0.12 ± 0.15
6,Nc1cc(C(Cl)=C(Cl)Cl)c(S(N)(=O)=O)cc1S(N)(=O)=O [Clorsulon],-0.08 ± 0.097
7,O=C1c2c(O)ccc(O)c2C(=O)c2c(NCCNCCO)ccc(NCCNCCO)c21 [Mitoxantrone HCl],0.96 ± 0.29
8,Cn1c(=O)c2[nH]cnc2n(C)c1=O [Aminophylline],-0.36 ± 0.19
9,NC(=O)c1noc([C@H](CCCC2CCCCC2)CC(=O)NO)n1,0.57 ± 0.34
10,C#CCN[C@@H]1CCc2ccccc21 [Rasagiline Mesylate],-0.35 ± 0.24
11,CNCc1ccc(-c2[nH]c3cc(F)cc4c3c2CCNC4=O)cc1,-0.29 ± 0.24
12,CC1(C)O[C@@H]2C[C@H]3[C@@H]4CCC5=CC(=O)C=C[C@]5(C)[C@@]4(F)[C@@H](O)C[C@]3(C)[C@]2(C(=O)CO)O1 [Triamcinolone Acetonide],0.21 ± 0.17
13,Cc1coc2c1C(=O)C(=O)c1c-2ccc2c1CCCC2(C)C [Tanshinone IIA],0.83 ± 0.24
14,C[C@@H]1C(=O)O[C@H]2C[C@@]34[C@H]5C[C@@H](C(C)(C)C)[C@]36[C@@H](OC(=O)[C@@H]6O)O[C@@]4(C(=O)O5)[C@]21O [Ginkgolide A],-0.99 ± 0.27
15,Cc1cnc(-c2cc(N3CCN(C(=O)CCS(C)(=O)=O)CC3)ncc2Cl)c(C)c1,-0.12 ± 0.14
16,Oc1ccc(OCc2ccccc2)cc1 [Monobenzone],-1.54 ± 0.6
17,CC(/C=C1\SC(=S)N(CC(=O)O)C1=O)=C\c1ccccc1 [Epalrestat],-0.03 ± 0.26
18,Cc1noc(-c2ccc(CSCCC(=O)O)cc2)c1NC(=O)OC(C)c1ccccc1Cl (configuration not stated),-0.15 ± 0.18
19,COc1cc(Nc2nc3ccccc3nc2NS(=O)(=O)c2ccc(NC(=O)c3ccc(C)c(OC)c3)cc2)cc(OC)c1,0.69 ± 0.17
20,c1ccc2[nH]c(-c3cscn3)nc2c1 [Thiabendazole],-0.12 ± 0.16

# Reprinted at random: 2 compounds from above, in no set order.
row,Structure (SMILES),rod outer segment shedding distance Ds [um]
16,Oc1ccc(OCc2ccccc2)cc1 [Monobenzone],-1.54 ± 0.6
2,NNC(=O)c1ccncc1 [Isoniazid],-1.41 ± 0.28

# Carrying on.

row,Structure (SMILES),rod outer segment shedding distance Ds [um]
1,Cc1coc2c1C(=O)C(=O)c1c-2ccc2c(C)cccc12 [Tanshinone I],-0.03 ± 0.28
2,O=c1ccn([C@@H]2O[C@H](CO)[C@@H](O)[C@H]2O)c(=O)[nH]1 [Uridine],-0.89 ± 0.27
3,COc1ccc([C@]2(C#N)CC[C@@H](C(=O)O)CC2)cc1OC1CCCC1 [Cilomilast],-0.45 ± 0.18
4,C[C@]1(c2nc3c(C(N)=O)cccc3[nH]2)CCCN1 [Veliparib (ABT-888)],-0.8 ± 0.27
5,O=C(Nc1cccc2c(=O)cc(-c3nnn[nH]3)oc12)c1ccc(OCCCCc2ccccc2)cc1 [Pranlukast],-0.17 ± 0.28
6,Cn1cc(-c2ccc3nnc(Sc4ccc5ncccc5c4)n3n2)cn1,-0.29 ± 0.25
7,OC(CC1c2ccccc2-c2cncn21)C1CCCCC1 (configuration not stated),-0.27 ± 0.28
8,CC(C)(CO)c1cc2cc(NC(=O)C3(c4ccc5c(c4)OC(F)(F)O5)CC3)c(F)cc2n1C[C@@H](O)CO,0.02 ± 0.13
9,CNC(=O)Nc1ccc(-c2nc(N3CC4CCC(C3)O4)c3cnn(C4CCC5(CC4)OCCO5)c3n2)cc1,-0.34 ± 0.13
10,O=C(O)c1cc(/N=N/c2ccc(S(=O)(=O)Nc3ccccn3)cc2)ccc1O [Sulfasalazine],0.15 ± 0.14
11,NC(=O)Nc1sc(-c2ccc(F)cc2)cc1C(N)=O,0.25 ± 0.14
12,C[C@@H]1CCO[C@H]2Cn3cc(C(=O)NCc4ccc(F)cc4F)c(=O)c(O)c3C(=O)N12,-0.33 ± 0.12
13,OC[C@H]1OC(O)[C@H](O)[C@@H](O)[C@@H]1O (some centres not stated) [Dextrose],0.11 ± 0.22
14,C=CC(=O)Nc1cccc(Oc2nc(Nc3ccc(N4CCN(C)CC4)cc3OC)ncc2Cl)c1,-0.02 ± 0.21
15,COc1ccc2cc3[n+](cc2c1OC)CCc1cc2c(cc1-3)OCO2 [Berberine HCl],-0.11 ± 0.41
16,COc1c(C)c2c(c(O)c1C/C=C(\C)CCC(=O)O)C(=O)OC2 [Mycophenolic acid],-0.03 ± 0.26
17,CC(C)(C#N)c1cc(Cn2cncn2)cc(C(C)(C)C#N)c1 [Anastrozole],-1.63 ± 0.23
18,Nc1[nH]cnc2ncnc1-2 [Adenine HCl],0.54 ± 0.22
19,CC(=O)SCC(Cc1ccccc1)C(=O)NCC(=O)OCc1ccccc1 (configuration not stated) [Racecadotril],0.37 ± 0.28
